According to PubChem BioAssay AID1259354 (Paczesny and Yang Labs, IUPUI and University of Michigan, 2018):
Values joined by “and” are separate entries in the source; they are usually repeats but may differ in a detail not shown here. Equal entries are not always repeated. Screen size: about 78,000 compounds; about 1,800 (2.3%) were called active. Inconclusive results, whose numbers are uncertain, are shown with a selection of clear calls. Cut-off read from the data, not from the text of the source: active = inhibition above about 30%; inconclusive = mostly about 10% to 28%; inactive = weaker than that.

Chains of the proteins cited; added tags and fusions are not shown. Lines headed by an entry give the natural chain unless they say otherwise; changes in a name come on top.
UniProt Q01638: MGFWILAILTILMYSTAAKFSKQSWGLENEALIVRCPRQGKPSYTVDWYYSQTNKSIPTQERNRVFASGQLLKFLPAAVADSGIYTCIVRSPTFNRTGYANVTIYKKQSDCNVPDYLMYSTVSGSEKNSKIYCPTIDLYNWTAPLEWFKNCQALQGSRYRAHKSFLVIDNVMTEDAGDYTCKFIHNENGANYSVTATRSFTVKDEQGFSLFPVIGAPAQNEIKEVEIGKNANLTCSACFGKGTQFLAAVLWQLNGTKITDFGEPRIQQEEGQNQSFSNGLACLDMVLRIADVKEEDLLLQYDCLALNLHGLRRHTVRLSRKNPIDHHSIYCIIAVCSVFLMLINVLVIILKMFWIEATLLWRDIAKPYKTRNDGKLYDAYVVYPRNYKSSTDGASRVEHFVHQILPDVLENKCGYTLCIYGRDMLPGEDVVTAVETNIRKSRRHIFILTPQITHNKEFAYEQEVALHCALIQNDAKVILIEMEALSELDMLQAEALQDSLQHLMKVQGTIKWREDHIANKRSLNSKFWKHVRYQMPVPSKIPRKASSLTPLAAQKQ

Each compound was assayed against Interleukin-1 receptor-like 1 (Homo sapiens) (UniProt Q01638) (assay: blocks human ST2 binding to IL-33, primary screen, biochemical, AlphaLISA (AID 1259354)). Settings: AlphaLISA ST2-Fc/biotin-IL-33 interaction, 1 h; at 17 µM, active compounds read high.

SMILES	inhibition
CCCCC(=O)NC(c1ccc2c(c1)OCO2)c1cc([N+](=O)[O-])c2cccnc2c1O (stereo not drawn)	inconclusive: 18%
OC(CN1CCN(CCc2ccccc2)CC1)Cn1c2ccccc2c2ccccc21 (stereo not drawn)	inconclusive: 28%
O=C1c2ccccc2C(Nc2cccc(F)c2)N1Cc1ccccc1 (stereo not drawn)	inconclusive: 16%
COc1ccc(NC(=O)c2cnc3scc(C)n3c2=O)cc1	inactive
COc1ccc(C2CC(=O)n3nc(-c4ccc(C)cc4)nc3S2)cc1OC (stereo not drawn)	inactive
COc1ccc(Nc2cc(C)nc(N3CCN(S(=O)(=O)c4cc(C)c(OC)cc4C)CC3)n2)cc1	inconclusive: 23%
O=C(Nc1ccccc1F)c1ccc([N+](=O)[O-])o1	inconclusive: 19%
O=C(Nc1ccc2c(c1)OCO2)c1cc2cc3ccc(Cl)cc3nc2o1	inconclusive: 29% and inconclusive: 25%
COc1ccc(C2C(C(=O)Nc3ccc(C)c(F)c3)c3cc(OC)c(OC)cc3C(=O)N2C)cc1 (stereo not drawn)	inconclusive: 17%
O=[N+]([O-])c1ccc(S(=O)(=O)N2CCN(CCCc3ccccc3)CC2)cc1	active: 34%
Cc1cc2ccccc2n1CCC(=O)NCCSc1nccn1C	inconclusive: 12%
CC1CCN(C(=O)Cc2c(C(=O)O)[nH]c3ccccc23)CC1	inactive
CN(C)c1ccc(C2N(c3ccc(Cl)c(Cl)c3)C(=O)C3CCCN32)cc1 (stereo not drawn)	inconclusive: 11%
CN1C[C@@H](NC(=O)CCC(=O)O)C[C@H]1c1nc(-c2ccc3c(c2)OCO3)no1	inconclusive: 11%
COC(=O)c1cc(O)c(OCc2ccccc2)c(O)c1	inactive
O=[N+]([O-])c1ccccc1OCCCN1CCCCC1	inactive
Cc1ccc(S(=O)(=O)N2CCSC2c2ccc([N+](=O)[O-])cc2)c(C)c1 (stereo not drawn)	inconclusive: 13%
Cc1ccc(-c2nc3cnccn3c2Nc2ccc3c(c2)OCCO3)cc1	inconclusive: 12%
CC1(C)CC(=O)C2=C(C1)Nc1nc(SCc3ccccc3)nn1C2c1cccnc1 (stereo not drawn)	inconclusive: 15%
CC(OC(=O)c1cccnc1SCc1cc(=O)n2ccccc2n1)c1ccccn1 (stereo not drawn)	inconclusive: 11%
COCc1cc(C)nc2sc(C(=O)c3ccc([N+](=O)[O-])cc3)c(N)c12	inconclusive: 14%
COc1ccc(N2CC(NC(=O)c3cccs3)CC2=O)cc1 (stereo not drawn)	inconclusive: 17%
CC1=C/C(=N\OC(=O)c2ccc(F)cc2)C=CC1=O	inconclusive: 10%
COc1ccccc1Cn1c(CNS(=O)(=O)c2cccs2)nc2cccnc21	inconclusive: 13%

SMILES	inhibition
CCOc1ccc(NC(=O)c2ccccc2OCC)c([N+](=O)[O-])c1	active: 42%
O=C(Nc1nnc(SCC(=O)N2CCCC2)s1)c1ccc([N+](=O)[O-])cc1	inactive
COc1ccc(Cl)cc1CN(C)C(=O)c1cccc(NCC(=O)O)c1	inconclusive: 13%
CC(=O)NCCc1ccc(O)cc1	inconclusive: 12%
Cc1oc(-c2ccc(Cl)cc2)nc1CSCC(=O)N1CCC2(CC1)OCCO2	inconclusive: 20%
Cc1[nH]c2ccccc2c1SCCNC(=O)Cc1cccs1	inconclusive: 15%
COc1ccc(OC)c(C2C3=C(CCCC3=O)Nc3nc(SC)[nH]c(=O)c32)c1 (stereo not drawn)	inactive
COc1ccccc1N1CCN(C(=O)c2cc3c(=O)n4cccc(C)c4nc3n2C)CC1	inactive
Cc1cc(N2CCN(C)CC2)nc2ccc(NC(=O)/C=C/c3ccc4c(c3)OCO4)cc12	inconclusive: 15%
COc1ccccc1C(=O)NC1CCS(=O)(=O)C1 (stereo not drawn)	inactive
Cc1cccc(OCC(=O)Nc2cc([N+](=O)[O-])ccc2C)c1	inactive
O=c1/c(=C\c2ccco2)sc2nc3ccccc3n12	inactive
Cc1ccsc1CNc1ccccc1C(=O)N(Cc1nccn1C)C1CC1	inconclusive: 11%
CCc1ccc(N(CC)C(=O)c2cc3cc4ccc(OC)cc4nc3o2)cc1	inconclusive: 20%
CN1CCCCC1C(=O)NCc1cccnc1N(C)C1CCCCC1 (stereo not drawn)	inconclusive: 12%
O=C(CC1(O)C(=O)N(Cc2ccccc2)c2ccccc21)c1ccc(Br)s1 (stereo not drawn)	inconclusive: 19%
COc1ccc(NC(=O)CC2Sc3ccc(C(F)(F)F)cc3NC2=O)cc1 (stereo not drawn)	inconclusive: 17%
O=C(Nc1cccc(NC(=O)c2cc(F)c(F)cc2Cl)c1)c1cccs1	inconclusive: 12%
COc1cccc(CNC(=O)CCC2CCCN(C(=O)c3cccc(-c4ccco4)c3)C2)c1 (stereo not drawn)	inconclusive: 11%
c1cncc(CN(Cc2ccc3nsnc3c2)CC2CCCN(C3CCCCC3)C2)c1 (stereo not drawn)	inactive
COc1ccc(C[C@H](NC(=O)[C@@H]2C[C@H](NC(=O)Nc3ccc(F)cc3F)CN2C(=O)CC(C)(C)C)C(N)=O)cc1	inconclusive: 13%
O=C1N(c2ccccc2)c2ccccc2C1(Cc1ccncc1)Cc1ccncc1	inconclusive: 15%
Cc1cccc2[nH]c(C3CCCN3Cc3ccc(S(C)(=O)=O)cc3)nc12 (stereo not drawn)	inconclusive: 16%
Cc1ccc(C(=O)N[C@H]2CO[C@H]3[C@@H]2OC[C@@H]3Nc2nccc(-c3ccc(-c4ccccc4)cc3)n2)cc1	inconclusive: 21%

Random excerpt: four records from the list.
SMILES	inhibition
COc1ccccc1N1CCN(C(=O)c2cc3c(=O)n4cccc(C)c4nc3n2C)CC1	inactive
COc1ccccc1C(=O)NC1CCS(=O)(=O)C1 (stereo not drawn)	inactive
Cc1[nH]c2ccccc2c1SCCNC(=O)Cc1cccs1	inconclusive: 15%
O=C(CC1(O)C(=O)N(Cc2ccccc2)c2ccccc21)c1ccc(Br)s1 (stereo not drawn)	inconclusive: 19%

Laid out differently: results already given.

| SMILES | inhibition |
| --- | --- |
| COc1ccc(Cl)cc1CN(C)C(=O)c1cccc(NCC(=O)O)c1 | inconclusive: 13% |
| CC(=O)NCCc1ccc(O)cc1 | inconclusive: 12% |
| Cc1oc(-c2ccc(Cl)cc2)nc1CSCC(=O)N1CCC2(CC1)OCCO2 | inconclusive: 20% |

Going on with the list:

SMILES	inhibition
Cc1cccc(-n2cc(CN(C)CC3(CO)CC3)cn2)c1	inconclusive: 20%
COc1cc(C(C#N)N2CCN(C(C#N)c3ccc(O)c(OC)c3)CC2)ccc1O (stereo not drawn)	inconclusive: 13%
N/C(=N/OC(=O)c1ccc(Br)o1)c1ccccn1	inconclusive: 21%
COc1cc2c(cc1O)O[C@H](c1ccccc1)[C@@H](O)C2=O	inactive
Cc1ccc(Nc2c(-c3ccco3)nc3cc(C)ccn23)cc1	inactive
O=C(CN1C(=O)CC(c2ccccc2)Sc2ccccc21)Nc1ccc2c(c1)OCO2 (stereo not drawn)	inactive
Cc1ccc(NC(=O)c2cc3ccccc3oc2=O)cc1[N+](=O)[O-]	inconclusive: 18%
COc1cc(Cl)cc(/C=C2\C(=O)Nc3ccc(Br)cc32)c1OC	inconclusive: 19%
CCC(C)NC(=O)CN1C(=O)C(CC)Oc2ccccc21 (stereo not drawn)	inconclusive: 10%
O=C(Nc1cccc2ncccc12)c1sc2ccccc2c1Cl	inconclusive: 11%
COc1ccc(NC(=O)CSc2cccc3cccnc23)c([N+](=O)[O-])c1	inconclusive: 17%
CCCNc1nc(-c2nnc(-c3ccc(C)cc3)o2)nc2ccccc12	inconclusive: 16%
COc1ccc(-c2noc(CN(Cc3ccccn3)CC3CCCO3)n2)c(OC)c1OC (stereo not drawn)	inactive
Cc1cccc(C)c1NC(=O)CSc1nnc2sc3ccccc3n12	inactive
C=CCSC(C)C(=O)N1CCN(C)C2(CCN(C)CC2)C1 (stereo not drawn)	inactive
CCc1ccccc1NC(=O)C(=O)N1CCCn2nc(C(=O)N3CCCC3)cc2C1	inconclusive: 19%
Nc1c(C(=O)NCc2ccco2)nnn1Cc1ccc(Cl)cc1	inactive
CCC(C)NC(=O)C1c2ccccc2Oc2ccccc21 (stereo not drawn)	inconclusive: 20%
CC1=NCCN1S(=O)(=O)c1cc(C)c(Cl)cc1Cl	inactive
CCOc1cc(C(=O)Nc2ccc3sc(C)nc3c2)cc(OCC)c1OCC	inactive
CCCN1CC=C2C(C#N)=C(N)C(C#N)(C#N)C(c3ccccc3F)C2C1 (stereo not drawn)	inconclusive: 21%
O=C(NCc1cccs1)C1(S(=O)(=O)c2ccc(Cl)cc2)CC1	inconclusive: 12%
CNCc1cn(C[C@H]2O[C@@H](CC(=O)NCc3ccc(OC)cc3)[C@H](O)[C@@H]2O)nn1	inactive
O=C(CSc1cn(CCNC(=O)c2ccc(F)cc2)c2ccccc12)Nc1ccccc1F	inactive

SMILES	inhibition
Cc1c(C=O)c2cc([N+](=O)[O-])ccc2n1C	inconclusive: 10%
C=CCN1C(=O)C(=O)C(=C(O)c2ccc(C)cc2)C1c1ccc(C)cc1 (stereo not drawn)	inconclusive: 13%
Cc1c(CC(=O)NC2CCSC2)c2c(n1Cc1ccccc1)CCCC2=O (stereo not drawn)	inconclusive: 10%
CN1Cc2[nH]cnc2C[C@H]1C(=O)NCc1ccco1	inactive
O=C(Nc1cccc(-c2ccco2)c1)C1CCN(C(=O)Cc2ccc3c(c2)OCO3)CC1	inconclusive: 22%
COc1ccc(C(=O)Nc2cccc3nsnc23)cc1OC	inconclusive: 15%
CSC1=NCCN1C(=O)c1ccc(OC(C)C)cc1	inconclusive: 10%
COc1ncnc2ccc(-c3ccccc3CN3CCOCC3)cc12	inconclusive: 11%
CCn1ncnc1C(C)NC(=O)CN1CCOc2ccccc2C1 (stereo not drawn)	inconclusive: 14%
CCCCNC(=O)NS(=O)(=O)c1c(C)cc(C)nc1Cl	inconclusive: 12%
COC(=O)C1=C(C)OC(N)=C(C#N)C1c1cccc(OCc2ccc(F)cc2)c1 (stereo not drawn)	inconclusive: 15%
O=C(Nc1ccc2oc(-c3ccncc3)nc2c1)c1ccco1	inconclusive: 28%
Cc1ccc(CN2C[C@H](O)C[C@H]2c2nc(CS(=O)(=O)c3ccc(C)cc3)no2)cc1	inconclusive: 13%
Cc1cc(Br)ccc1NC(=O)Cn1ncc2c(=O)oc3ccccc3c21	inconclusive: 19%
COc1ccc2cc3cc(C(=O)N4CCN(Cc5ccc6c(c5)OCO6)CC4)oc3nc2c1	inconclusive: 25%
COc1cccc(NC(=O)N2CC[C@H]3CC(=O)N(c4ccccc4)CC[C@H]3C2)c1	inconclusive: 15%
COc1ccccc1N1CCN(C(=O)Cc2cn(C)c3ccccc23)CC1	inactive
C=C(C)C[C@H]1CC=C(Br)[C@H](CC(=C)C)N1	inactive
O=c1c2c3c(sc2ncn1CCc1nc2c(s1)CCC2)CNCC3	inconclusive: 19%
Cc1ccc(C)c(N2CCN(C(=O)/C=C3\Sc4ccccc4NC3=O)CC2)c1	inconclusive: 18%
CCCCN(C)Cc1c(O)ccc2c(=O)c(Oc3cc(C)cc(C)c3)coc12	inconclusive: 12%
